Data taken from the supplement of paper PMC9233669.
This sample is rich in variants without activity.

How the values were obtained:
biotinyl-Ile-oxazolone = assay: self-aminoacylation, catalytic enhancement (BIO) (fold over background); higher = more active; k-Seq, kA / k0A0; sequences stand for … in GGGAAUGGAUCCACAUCUACGAAUUC…UUCACUGCAGACUUGACGAAGCUG
Procedure, shortened: (§1)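 Mutagenized RNA pools with a 21-nt variable region (0.43 μM) were reacted with each biotinyl-aminoacyl-oxazolone at 2–1250 μM for 90 minutes at room temperature, in 50 μL HEPES/NaCl/KCl/MgCl2/CaCl2 buffer containing 5% acetonitrile at pH 6.9–7.0. RNA captured on streptavidin was quantified by triplicate qPCR and by Illumina sequencing. The fraction reacted for each sequence was fit to a pseudo-first-order model with bootstrapping, and catalytic enhancement is the median kA divided by the uncatalyzed rate, taken as the low-activity peak of a bimodal Gaussian fit.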

biotinyl-Met-oxazolone = assay: self-aminoacylation, catalytic enhancement (BMO) (fold over background); higher = more active; k-Seq, kA / k0A0; sequences stand for … in GGGAAUGGAUCCACAUCUACGAAUUC…UUCACUGCAGACUUGACGAAGCUG
Procedure, shortened: as §1

biotinyl-Phe-oxazolone = assay: self-aminoacylation, catalytic enhancement (BFO) (fold over background); higher = more active; k-Seq, kA / k0A0; sequences stand for … in GGGAAUGGAUCCACAUCUACGAAUUC…UUCACUGCAGACUUGACGAAGCUG
Procedure, shortened: as §1

biotinyl-Leu-oxazolone = assay: self-aminoacylation, catalytic enhancement (BLO) (fold over background); higher = more active; k-Seq, kA / k0A0; sequences stand for … in GGGAAUGGAUCCACAUCUACGAAUUC…UUCACUGCAGACUUGACGAAGCUG
Procedure, shortened: as §1

biotinyl-Val-oxazolone = assay: self-aminoacylation, catalytic enhancement (BVO) (fold over background); higher = more active; k-Seq, kA / k0A0; sequences stand for … in GGGAAUGGAUCCACAUCUACGAAUUC…UUCACUGCAGACUUGACGAAGCUG
Procedure, shortened: as §1

biotinyl-Trp-oxazolone = assay: self-aminoacylation, catalytic enhancement (BWO) (fold over background); higher = more active; k-Seq, kA / k0A0; sequences stand for … in GGGAAUGGAUCCACAUCUACGAAUUC…UUCACUGCAGACUUGACGAAGCUG
Procedure, shortened: as §1

Row | Sequence | self-aminoacylation (biotinyl-Ile-oxazolone) | self-aminoacylation (biotinyl-Met-oxazolone) | self-aminoacylation (biotinyl-Phe-oxazolone) | self-aminoacylation (biotinyl-Leu-oxazolone) | self-aminoacylation (biotinyl-Val-oxazolone) | self-aminoacylation (biotinyl-Trp-oxazolone)
1 | CUACUUCGAACAAUCUGUCUG [Fam1A.1 aminoacylation ribozyme variant] | 0.539 | 0.51 | 0.413 | 0.576 | 0.576 | 0.337
2 | CUACUUCGAACUAUCGGUCUG [Fam1A.1 aminoacylation ribozyme variant] | 0.8 | 0.778 | 0.964 | 0.776 | 0.842 | 0.459
3 | CUACUUCUAACAAUAGGUCUG [Fam1A.1 aminoacylation ribozyme variant] | 0.686 | 0.731 | 0.804 | 0.59 | 0.638 | 0.373
4 | CUACUUCUGACAAUCGGUCUG [Fam1A.1 aminoacylation ribozyme variant] | 0.578 | 0.714 | 0.543 | 0.63 | 0.77 | 0.482
5 | CUACUUGAAACAAUCGCUCUG [Fam1A.1 aminoacylation ribozyme variant] | 0.777 | 0.626 | 0.553 | 0.805 | 0.782 | 0.655
6 | CUACUUGAAACAAUCGGUGUG [Fam1A.1 aminoacylation ribozyme variant] | 0.961 | 1.22 | 0.706 | 1.3 | 1.07 | 1.68
7 | CUACUUGAAACAUUCGGUCUG [Fam1A.1 aminoacylation ribozyme variant] | 1.36 | 1.48 | 0.666 | 1.31 | 1.51 | 1.16
8 | CUACUUGACACAAUCGGUCUG [Fam1A.1 aminoacylation ribozyme variant] | 0.666 | 0.737 | 0.667 | 0.67 | 0.744 | 0.418
9 | CUACUUGCAACAAUCGGUCUG [Fam1A.1 aminoacylation ribozyme variant] | 0.67 | 0.776 | 0.525 | 0.641 | 0.682 | 0.574
10 | CUACUUUAAACAAACGGUCUG [Fam1A.1 aminoacylation ribozyme variant] | 0.989 | 0.91 | 0.644 | 0.776 | 0.905 | 0.502
11 | CUACUUUAAACAAUCUGUCUG [Fam1A.1 aminoacylation ribozyme variant] | 0.707 | 0.642 | 0.636 | 0.62 | 0.759 | 0.427
12 | CUACUUUAUACAAUCGGUCUG [Fam1A.1 aminoacylation ribozyme variant] | 0.857 | 0.832 | 0.815 | 0.808 | 0.882 | 0.626
13 | CUACUUUGAACAAUCGGUCUG [Fam1A.1 aminoacylation ribozyme variant] | 0.705 | 0.633 | 0.451 | 0.588 | 0.647 | 0.593
14 | CUAUUUCAAACAAUCGGUAUG [Fam1A.1 aminoacylation ribozyme variant] | 0.649 | 0.727 | 1.62 | 0.624 | 0.559 | 0.893
15 | CUAUUUCAAACAAUCGGUCCG [Fam1A.1 aminoacylation ribozyme variant] | 0.682 | 0.802 | 0.799 | 0.816 | 0.683 | 0.945
16 | CUAUUUCAAACAAUCGGUUUG [Fam1A.1 aminoacylation ribozyme variant] | 0.907 | 0.903 | 4.11 | 1 | 0.81 | 3.18
17 | CUCUUUCAAACAAUCGGUCUG [Fam1A.1 aminoacylation ribozyme variant] | 0.972 | 1.13 | 14.2 | 1.21 | 0.908 | 9.95
18 | CUUACCCUGGUGAUCGAGUGA [Fam2.1 aminoacylation ribozyme variant] | 2.65 | 4.51 | 14.5 | 4.36 | 2.81 | 5.52
19 | CUUCCUCAAACAAUCGGUCUG [Fam1A.1 aminoacylation ribozyme variant] | 0.739 | 0.789 | 1.15 | 0.827 | 0.905 | 1.06
20 | CUUCUUCAAACAAUCGUUCUG [Fam1A.1 aminoacylation ribozyme variant] | 0.68 | 0.62 | 1.06 | 0.65 | 0.6 | 0.804
21 | CUUCUUCCAACAAUCGGUCUG [Fam1A.1 aminoacylation ribozyme variant] | 0.773 | 0.824 | 0.858 | 0.665 | 0.697 | 1.11
22 | CUUCUUUAAACAAUCGGUCUG [Fam1A.1 aminoacylation ribozyme variant] | 0.898 | 0.95 | 1.13 | 0.851 | 0.788 | 0.783
23 | GACUUUGCUAAUAGUCGCAAG [Fam3.1 aminoacylation ribozyme variant] | 1.74 | 2.11 | 2.88 | 1.85 | 1.72 | 1.97
